Laboratory results as given in the supplement of paper PMC8728848.
Some of the results follow.

Tests used:
Test in all cases: glycan array binding signal (z-score within array); higher = stronger binding
Conditions in all cases: glycan notation: IUPAC condensed, linker removed
[1] = target: Fuc(a1-2)[GalNAc(a1-3)]Gal(b1-3)GlcNAc(b1-6)GalNAc
Method in brief: (§1)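 The binding signal is a Z-score computed within each array and averaged over linkers. Arrays of the same protein sequence at different concentrations or buffers were also averaged together. Data originate from 3228 arrays in the Consortium for Functional Glycomics database, kept only where the protein sequence was available.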

[2] = target: Fuc(a1-2)[GalNAc(a1-3)]Gal(b1-4)Glc
Method in brief: as §1

[3] = target: Fuc(a1-2)[GalNAc(a1-3)]Gal(b1-4)GlcNAc
Method in brief: as §1

[4] = target: Fuc(a1-2)[GalNAc(a1-3)]Gal(b1-4)GlcNAc(b1-2)Man
Method in brief: as §1

[5] = target: Fuc(a1-2)[GalNAc(a1-3)]Gal(b1-4)GlcNAc(b1-2)Man(a1-3)[Fuc(a1-2)[GalNAc(a1-3)]Gal(b1-4)GlcNAc(b1-2)Man(a1-6)]Man(b1-4)GlcNAc(b1-4)GlcNAc
Method in brief: as §1

[6] = target: Fuc(a1-2)[GalNAc(a1-3)]Gal(b1-4)GlcNAc(b1-2)Man(a1-3)[Fuc(a1-2)[GalNAc(a1-3)]Gal(b1-4)GlcNAc(b1-2)Man(a1-6)]Man(b1-4)GlcNAc(b1-4)[Fuc(a1-6)]GlcNAc
Method in brief: as §1

[7] = target: Fuc(a1-2)[GalNAc(a1-3)]Gal(b1-4)GlcNAc(b1-3)Gal(b1-4)GlcNAc
Method in brief: as §1

[8] = target: Fuc(a1-2)[GalNAc(a1-3)]Gal(b1-4)GlcNAc(b1-3)Gal(b1-4)GlcNAc(b1-3)Gal(b1-4)GlcNAc
Method in brief: as §1

[9] = target: Fuc(a1-2)[GalNAc(a1-3)]Gal(b1-4)GlcNAc(b1-3)GalNAc
Method in brief: as §1

[10] = target: Fuc(a1-2)[GalNAc(a1-3)]Gal(b1-4)GlcNAc(b1-3)[Fuc(a1-2)[GalNAc(a1-3)]Gal(b1-4)GlcNAc(b1-6)]GalNAc
Method in brief: as §1

[11] = target: Fuc(a1-2)[GalNAc(a1-3)]Gal(b1-4)GlcNAc(b1-6)GalNAc
Method in brief: as §1

[12] = target: Fuc(a1-2)[GalNAc(a1-3)]Gal(b1-4)[Fuc(a1-3)]GlcNAc
Method in brief: as §1

[13] = target: Fuc(a1-2)[GalNAc(a1-3)]Gal(b1-4)[Fuc(a1-3)]GlcNAc(b1-3)GalNAc
Method in brief: as §1

[14] = target: Fuc(a1-2)[GalNAc(a1-4)]Gal(b1-4)GlcNAc
Method in brief: as §1

[15] = target: Fuc(a1-2)[GalNAc(b1-3)]Gal
Method in brief: as §1

[16] = target: Fuc(a1-3)GlcNAc
Method in brief: as §1

[17] = target: Fuc(a1-3)[Gal(b1-4)]Glc6S
Method in brief: as §1

[18] = target: Fuc(a1-3)[Gal(b1-4)]GlcNAc
Method in brief: as §1

[19] = target: Fuc(a1-3)[Gal(b1-4)]GlcNAc(b1-2)Man
Method in brief: as §1

[20] = target: Fuc(a1-3)[Gal(b1-4)]GlcNAc(b1-2)Man(a1-3)[Fuc(a1-3)[Gal(b1-4)]GlcNAc(b1-2)Man(a1-6)]Man(b1-4)GlcNAc(b1-4)GlcNAc
Method in brief: as §1

[21] = target: Fuc(a1-3)[Gal(b1-4)]GlcNAc(b1-2)Man(a1-3)[Fuc(a1-3)[Gal(b1-4)]GlcNAc(b1-2)Man(a1-6)]Man(b1-4)GlcNAc(b1-4)[Fuc(a1-6)]GlcNAc
Method in brief: as §1

[22] = target: Fuc(a1-3)[Gal(b1-4)]GlcNAc(b1-3)Gal(b1-3)[Fuc(a1-4)]GlcNAc
Method in brief: as §1

[23] = target: Fuc(a1-3)[Gal(b1-4)]GlcNAc(b1-3)Gal(b1-4)[Fuc(a1-3)]GlcNAc
Method in brief: as §1

[24] = target: Fuc(a1-3)[Gal(b1-4)]GlcNAc(b1-3)Gal(b1-4)[Fuc(a1-3)]GlcNAc(b1-3)Gal(b1-4)[Fuc(a1-3)]GlcNAc
Method in brief: as §1

[25] = target: Fuc(a1-3)[Gal(b1-4)]GlcNAc(b1-3)GalNAc
Method in brief: as §1

[26] = target: Fuc(a1-3)[Gal(b1-4)]GlcNAc(b1-6)GalNAc
Method in brief: as §1

[27] = target: Fuc(a1-3)[Gal(b1-4)]GlcNAc(b1-6)[Gal(b1-3)GlcNAc(b1-3)]Gal(b1-4)Glc
Method in brief: as §1

[28] = target: Fuc(a1-3)[Gal(b1-4)]GlcNAc6S
Method in brief: as §1

[29] = target: Fuc(a1-3)[Gal3S(b1-4)]Glc
Method in brief: as §1

[30] = target: Fuc(a1-3)[Gal3S(b1-4)]GlcNAc
Method in brief: as §1

[31] = target: Fuc(a1-3)[Gal3S(b1-4)]GlcNAc6S
Method in brief: as §1

[32] = target: Fuc(a1-3)[GalNAc(b1-4)]GlcNAc
Method in brief: as §1

[33] = target: Fuc(a1-3)[GalNAc(b1-4)]GlcNAc6S
Method in brief: as §1

[34] = target: Fuc(a1-4)GlcNAc
Method in brief: as §1

[35] = target: Fuc(b1-3)GlcNAc
Method in brief: as §1

[36] = target: Gal(a1-2)Gal
Method in brief: as §1

[37] = target: Gal(a1-3)Gal
Method in brief: as §1

B1: RobpsCRA (Robinia pseudoacacia) (protein)
chain: IKGGYWYSGSGLAVSDINPSHFTHLFCAFADLDPNTNKLTISSSNAAAFSTFTQTVRAKNPSVKTLLSIGGGGGRALAAVFANMASQASRRKSFIDSSIQLARRNNFHGLDLDWEYPSSDIDKTNFASLIREWRAAVATESSTSGTPALLLSAAVGGSDQITPLKYYPGEAIANNLDWVNVMTYDLYTSDSYPTLTQPPAPLFYPRGIFSADEGITKWIQSGVPESKLALGLPFYGFKWRLSDPNNHGLFAPATQGLGAVKYKDIVNTGGQVEFDSTYVTNYCFKGTDWYGYDDTQSISAKVAYAKQRGLFGYFAWHIEQDSNWALS
glycan array binding signal (z-score) [1]: -0.584
glycan array binding signal (z-score) [2]: 0.174
glycan array binding signal (z-score) [3]: -0.563
glycan array binding signal (z-score) [4]: 0.206
glycan array binding signal (z-score) [5]: 1.41
glycan array binding signal (z-score) [6]: 0.278
glycan array binding signal (z-score) [7]: 0.295
glycan array binding signal (z-score) [8]: -0.213
glycan array binding signal (z-score) [9]: -0.161
glycan array binding signal (z-score) [10]: -0.158
glycan array binding signal (z-score) [11]: -0.132
glycan array binding signal (z-score) [12]: -0.375
glycan array binding signal (z-score) [13]: 16.3
glycan array binding signal (z-score) [14]: 1.45
glycan array binding signal (z-score) [15]: 0.157
glycan array binding signal (z-score) [16]: -0.634
glycan array binding signal (z-score) [17]: -0.076
glycan array binding signal (z-score) [18]: -0.341
glycan array binding signal (z-score) [19]: -0.403
glycan array binding signal (z-score) [20]: -0.2
glycan array binding signal (z-score) [21]: 0.098
glycan array binding signal (z-score) [22]: -0.007
glycan array binding signal (z-score) [23]: -0.135
glycan array binding signal (z-score) [24]: 0.192
glycan array binding signal (z-score) [25]: 0.084
glycan array binding signal (z-score) [26]: 0.263
glycan array binding signal (z-score) [27]: -0.481
glycan array binding signal (z-score) [28]: -0.318
glycan array binding signal (z-score) [29]: -0.504
glycan array binding signal (z-score) [30]: 0.518
glycan array binding signal (z-score) [31]: 0.763
glycan array binding signal (z-score) [32]: 1
glycan array binding signal (z-score) [33]: 0.373
glycan array binding signal (z-score) [34]: -0.31
glycan array binding signal (z-score) [35]: 0.048
glycan array binding signal (z-score) [36]: -0.237
glycan array binding signal (z-score) [37]: 1.27
